Test results reported in patent US8748369B2, “Use of targeted nitroxide agents in bone healing” (University of Pittsburgh-Of the Commonwealth System of …, priority 2009, dated 2014).

Test system: rats subjected to volume-controlled hemorrhagic shock
Assay: Survival of rats subjected to volume-controlled hemorrhagic shock
Format: in vivo, rat
Experimental: Survival of Rats Subjected to Volume-controlled Hemorrhagic Shock. Following surgical preparation and a 5-min stabilization period to obtain baseline readings, rats were subjected to hemorrhagic shock. Bleeding was carried out in 2 phases.
Initially, 21 ml/kg of blood was withdrawn over 20 min. Immediately thereafter, an additional 12.5 ml/kg of blood was withdrawn over 40 min. Thus, hemorrhage occurred over a total period of 60 min and the total blood loss was 33.5 ml/kg or approximately 55% of the total blood volume. Rats were randomly assigned to receive XJB-5-131 (2 μmmol/kg) or its vehicle, a 33:67 (v/v) mixture of DMSO and normal saline. XJB-5-131 solution or vehicle alone was administered as a continuous infusion during the last 20 min of the hemorrhage period. The total volume of fluid infused was 2.8 ml/kg and it was administered intravenously using a syringe pump (KD100, KD Scientific, New Hope, Pa.). […] At the end of the 6 hour observation period, animals that were still alive were euthanized with an overdose of KCl.
Blood pressure was recorded continuously using a commercial strain-gauge transducer, amplifier, and monitor (590603a, SpaceLabs, Redmond, Wash.). Blood samples (0.5 ml) were collected from the jugular vein at the beginning of hemorrhage (baseline), at the end of hemorrhage (shock) and at the end of resuscitation (resuscitation). Hemoglobin concentration [Hb], lactate and glucose concentration were determined using an auto-analyzer (Model ABL 725, Radiometer Copenhagen, Westlake, Ohio).
A total of sixteen rats were tested in this study. Rats were treated with 2.8 ml/kg of vehicle or the same volume of XJB-5-131 solution during the final 20 min of the bleeding protocol. The total dose of XJB-5-131 infused was 2 μmol/kg. Following profound hemorrhagic shock consistent with the protocol described above for the prior studies, thirteen survived for at least 60 min and received the full dose of either XJB-5-131 solution or the vehicle, a 33:67 (v/v) mixture of DMSO and normal saline. […] None of the between-group differences were statistically significant.

[1] = End of first phase of hemorrhage
[2] = End of second phase of hemorrhage, 2 μmol/kg IV

CC(C)C[C@@H](/C=C/[C@H](Cc1ccccc1)C(=O)N1CCC[C@H]1C(=O)N[C@H](C(=O)N[C@@H](CCCNC(=O)OCc1ccccc1)C(=O)NC1CC(C)(C)N([O])C(C)(C)C1)C(C)C)NC(=O)OC(C)(C)C [XJB-5-131]
Blood Hb concentration (Baseline): 12.7 ± 0.3 g/dL
Blood glucose concentration (Baseline): 134 ± 4 mg/dL
Blood lactate concentration (Baseline): 1.8 ± 0.2 mEq/L
Blood Hb concentration [1]: 10.7 ± 0.3 g/dL
Blood glucose concentration [1]: 228 ± 24 mg/dL
Blood lactate concentration [1]: 5.7 ± 0.8 mEq/L
Blood Hb concentration [2]: 9.4 ± 0.3 g/dL
Blood glucose concentration [2]: 201 ± 38 mg/dL
Blood lactate concentration [2]: 5.6 ± 1.2 mEq/L
